Assay [1] deals with HIS epitope-tagged N2 immunopurified from tissue culture cells and immobilized on nickel beads (human) (UniProt Q04721). As to the kind of experiment: pull-down; HIS epitope-tagged receptor immunopurified from cells and immobilized on nickel beads, incubated with HA epitope-tagged receptor in the presence or absence of peptides; Western blot.
Assay [2] addresses purified recombinant HIS epitope-tagged NOTCH3 extracellular domain (human) (UniProt Q9UM47). As to the kind of experiment: co-IP; purified recombinant N3 ECD incubated with in vitro translated HA epitope-tagged N3-ECD; immunoprecipitation, Western blot; only the target purified. (Immunoblotting shows a protein as a band on a membrane.)
The target in assay [3] is HIS epitope-tagged full-length NOTCH3 (human) (UniProt Q9UM47). As to the kind of experiment: co-IP; HA and HIS epitope-tagged constructs cotransfected into 293T cells; immunoprecipitation, Western blot.
Assay [4] deals with HA epitope-tagged full-length NOTCH3 (human) (UniProt Q9UM47). As to the kind of experiment: proximity ligation; 293T cells stably expressing HA epitope-tagged receptor, 2 μg/mL recombinant human DLL1 for 1 h at 4 °C; mouse and rabbit anti-HA antibodies, Duolink.

Sequences of proteins named here, by UniProt entry; tags and fusion partners are left off. A change or cut given only in a name is not applied to a line headed by its entry. Residues count along the entry.
UniProt Q04721, residues 26-2471: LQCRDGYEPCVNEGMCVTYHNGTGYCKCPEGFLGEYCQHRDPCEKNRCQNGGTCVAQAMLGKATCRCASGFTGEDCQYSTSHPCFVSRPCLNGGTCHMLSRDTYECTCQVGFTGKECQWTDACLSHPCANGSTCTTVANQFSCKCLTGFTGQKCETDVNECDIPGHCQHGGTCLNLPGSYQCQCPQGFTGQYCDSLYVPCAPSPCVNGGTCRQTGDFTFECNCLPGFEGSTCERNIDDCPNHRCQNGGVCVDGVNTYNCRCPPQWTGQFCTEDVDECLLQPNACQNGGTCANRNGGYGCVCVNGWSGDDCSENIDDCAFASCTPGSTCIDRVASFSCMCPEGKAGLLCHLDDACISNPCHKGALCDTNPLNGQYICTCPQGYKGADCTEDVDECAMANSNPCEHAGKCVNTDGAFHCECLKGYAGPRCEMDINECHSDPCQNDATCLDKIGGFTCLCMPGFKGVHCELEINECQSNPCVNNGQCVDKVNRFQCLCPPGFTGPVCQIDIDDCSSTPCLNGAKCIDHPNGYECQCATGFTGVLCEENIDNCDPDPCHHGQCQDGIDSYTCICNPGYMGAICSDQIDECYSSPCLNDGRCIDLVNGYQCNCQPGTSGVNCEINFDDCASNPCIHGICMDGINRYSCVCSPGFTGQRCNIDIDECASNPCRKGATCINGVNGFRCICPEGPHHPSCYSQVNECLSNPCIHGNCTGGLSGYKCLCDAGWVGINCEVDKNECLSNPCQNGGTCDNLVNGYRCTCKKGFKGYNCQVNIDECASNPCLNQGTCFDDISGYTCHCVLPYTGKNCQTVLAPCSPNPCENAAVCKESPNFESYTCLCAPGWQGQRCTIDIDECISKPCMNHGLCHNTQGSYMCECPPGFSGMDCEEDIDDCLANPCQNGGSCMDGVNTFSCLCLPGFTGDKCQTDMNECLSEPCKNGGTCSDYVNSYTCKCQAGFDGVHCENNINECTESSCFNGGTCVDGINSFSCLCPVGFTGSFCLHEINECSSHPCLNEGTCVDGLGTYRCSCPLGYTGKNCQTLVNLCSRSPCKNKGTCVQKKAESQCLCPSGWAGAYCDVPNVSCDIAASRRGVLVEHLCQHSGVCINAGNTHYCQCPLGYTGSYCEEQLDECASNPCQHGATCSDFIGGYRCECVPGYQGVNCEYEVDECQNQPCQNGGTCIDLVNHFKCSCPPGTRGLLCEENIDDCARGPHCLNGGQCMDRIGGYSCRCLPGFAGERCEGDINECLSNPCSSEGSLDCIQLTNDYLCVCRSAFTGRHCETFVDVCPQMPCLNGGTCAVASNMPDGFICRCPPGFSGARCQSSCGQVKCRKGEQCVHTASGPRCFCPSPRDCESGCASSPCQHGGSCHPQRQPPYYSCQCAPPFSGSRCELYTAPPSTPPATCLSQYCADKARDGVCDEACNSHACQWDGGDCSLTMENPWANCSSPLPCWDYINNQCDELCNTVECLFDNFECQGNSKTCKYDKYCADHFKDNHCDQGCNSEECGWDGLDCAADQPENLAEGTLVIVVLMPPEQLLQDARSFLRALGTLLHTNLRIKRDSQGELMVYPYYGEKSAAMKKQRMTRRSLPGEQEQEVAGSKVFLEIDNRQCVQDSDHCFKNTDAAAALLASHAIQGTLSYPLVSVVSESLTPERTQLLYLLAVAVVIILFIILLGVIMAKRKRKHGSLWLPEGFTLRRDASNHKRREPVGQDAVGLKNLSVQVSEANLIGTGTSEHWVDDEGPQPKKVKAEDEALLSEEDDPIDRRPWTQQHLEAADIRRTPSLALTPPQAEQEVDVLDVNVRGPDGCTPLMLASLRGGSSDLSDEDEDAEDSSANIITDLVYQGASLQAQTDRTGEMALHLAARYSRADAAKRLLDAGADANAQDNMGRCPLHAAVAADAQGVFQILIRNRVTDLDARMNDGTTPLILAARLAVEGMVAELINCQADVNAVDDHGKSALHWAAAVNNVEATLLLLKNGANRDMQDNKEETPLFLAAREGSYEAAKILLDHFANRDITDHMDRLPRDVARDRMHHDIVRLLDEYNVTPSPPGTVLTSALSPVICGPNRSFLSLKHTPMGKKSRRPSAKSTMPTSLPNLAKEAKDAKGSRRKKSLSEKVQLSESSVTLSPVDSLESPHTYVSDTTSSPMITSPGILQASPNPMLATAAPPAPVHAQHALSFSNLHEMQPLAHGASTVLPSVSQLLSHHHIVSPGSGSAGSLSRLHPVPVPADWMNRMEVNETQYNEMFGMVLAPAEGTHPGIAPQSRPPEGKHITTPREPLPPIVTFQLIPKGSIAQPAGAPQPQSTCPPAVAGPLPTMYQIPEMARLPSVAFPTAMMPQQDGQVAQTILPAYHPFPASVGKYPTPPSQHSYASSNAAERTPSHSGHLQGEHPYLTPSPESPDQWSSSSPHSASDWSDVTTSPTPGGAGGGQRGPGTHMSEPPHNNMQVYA
UniProt Q9UM47: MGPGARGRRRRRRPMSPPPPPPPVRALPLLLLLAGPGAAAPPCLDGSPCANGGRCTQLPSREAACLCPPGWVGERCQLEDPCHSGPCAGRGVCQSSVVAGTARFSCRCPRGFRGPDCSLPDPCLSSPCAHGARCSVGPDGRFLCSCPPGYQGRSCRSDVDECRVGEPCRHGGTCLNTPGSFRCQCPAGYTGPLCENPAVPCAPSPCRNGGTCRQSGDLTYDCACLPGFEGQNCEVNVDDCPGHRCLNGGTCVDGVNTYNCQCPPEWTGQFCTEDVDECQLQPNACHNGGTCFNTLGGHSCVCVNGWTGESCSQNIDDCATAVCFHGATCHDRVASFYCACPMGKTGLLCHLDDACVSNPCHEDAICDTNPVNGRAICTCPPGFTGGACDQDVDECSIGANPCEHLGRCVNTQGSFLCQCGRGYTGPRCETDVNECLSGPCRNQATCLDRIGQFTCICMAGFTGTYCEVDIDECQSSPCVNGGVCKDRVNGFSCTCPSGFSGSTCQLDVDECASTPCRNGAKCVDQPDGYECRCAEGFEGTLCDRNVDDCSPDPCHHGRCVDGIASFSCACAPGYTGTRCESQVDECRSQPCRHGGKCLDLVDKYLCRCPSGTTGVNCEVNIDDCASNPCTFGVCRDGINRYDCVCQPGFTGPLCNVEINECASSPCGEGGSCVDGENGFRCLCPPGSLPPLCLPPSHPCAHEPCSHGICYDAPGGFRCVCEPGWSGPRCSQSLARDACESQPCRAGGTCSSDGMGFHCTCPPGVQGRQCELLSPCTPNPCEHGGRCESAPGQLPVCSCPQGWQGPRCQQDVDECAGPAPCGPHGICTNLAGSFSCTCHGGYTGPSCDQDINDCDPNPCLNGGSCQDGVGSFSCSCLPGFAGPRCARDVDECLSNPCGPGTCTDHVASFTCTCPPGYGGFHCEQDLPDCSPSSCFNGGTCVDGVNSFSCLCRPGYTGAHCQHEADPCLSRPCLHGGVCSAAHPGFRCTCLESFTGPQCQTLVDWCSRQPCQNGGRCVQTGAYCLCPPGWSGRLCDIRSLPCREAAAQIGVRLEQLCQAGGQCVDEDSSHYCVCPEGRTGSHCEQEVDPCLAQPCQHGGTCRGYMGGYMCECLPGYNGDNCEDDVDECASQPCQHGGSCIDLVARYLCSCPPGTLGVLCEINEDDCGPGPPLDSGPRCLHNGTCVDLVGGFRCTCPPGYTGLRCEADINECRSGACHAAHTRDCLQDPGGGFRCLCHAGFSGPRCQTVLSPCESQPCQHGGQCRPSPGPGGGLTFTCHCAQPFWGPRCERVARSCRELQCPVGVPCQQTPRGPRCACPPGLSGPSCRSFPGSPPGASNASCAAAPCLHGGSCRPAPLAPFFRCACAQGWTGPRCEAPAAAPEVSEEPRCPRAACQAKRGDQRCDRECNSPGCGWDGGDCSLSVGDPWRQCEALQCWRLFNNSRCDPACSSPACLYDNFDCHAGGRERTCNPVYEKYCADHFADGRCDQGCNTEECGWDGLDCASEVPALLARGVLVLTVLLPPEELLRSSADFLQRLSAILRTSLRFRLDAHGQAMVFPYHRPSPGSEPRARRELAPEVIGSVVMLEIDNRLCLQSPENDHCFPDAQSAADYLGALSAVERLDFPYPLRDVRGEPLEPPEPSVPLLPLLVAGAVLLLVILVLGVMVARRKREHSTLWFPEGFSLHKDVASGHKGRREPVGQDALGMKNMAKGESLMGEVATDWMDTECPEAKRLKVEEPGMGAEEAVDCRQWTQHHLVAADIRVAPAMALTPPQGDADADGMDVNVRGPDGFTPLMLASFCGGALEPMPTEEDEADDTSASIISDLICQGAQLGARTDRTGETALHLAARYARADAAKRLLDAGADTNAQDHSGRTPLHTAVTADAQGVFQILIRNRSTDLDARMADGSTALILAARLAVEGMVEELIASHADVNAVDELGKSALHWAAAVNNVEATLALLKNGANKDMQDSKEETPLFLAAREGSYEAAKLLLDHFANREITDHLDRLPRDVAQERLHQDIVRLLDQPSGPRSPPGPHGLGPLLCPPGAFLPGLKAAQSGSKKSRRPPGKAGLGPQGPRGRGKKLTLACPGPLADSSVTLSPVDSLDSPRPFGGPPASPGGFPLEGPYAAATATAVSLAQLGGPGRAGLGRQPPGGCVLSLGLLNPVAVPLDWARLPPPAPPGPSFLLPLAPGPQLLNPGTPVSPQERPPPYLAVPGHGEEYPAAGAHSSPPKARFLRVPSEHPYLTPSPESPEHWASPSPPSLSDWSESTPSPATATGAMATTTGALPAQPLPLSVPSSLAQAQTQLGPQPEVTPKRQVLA

Results are given in words; binding and its absence hold for the method and conditions named. Binding seen in cells or lysates may run through a third protein. Some results given as binding are weak or reduced against the parent protein; the word gives no strength.

Consider “HA epitope-tagged N2 incubated with bead-bound HIS epitope-tagged N2 (from UniProt Q04721 26-2471) (receptor)”, for which, in assay [1], the binding result was “binds”.

Consider “HA epitope-tagged N3-ECD produced by in vitro translation (from UniProt Q9UM47 40-1643) (domain or fragment)”, for which, in assay [2], the binding entry is given as “binds”. Regarding “HA epitope-tagged full-length NOTCH3 (from UniProt Q9UM47 40-2321) (receptor)”, the binding result in assay [3] and in assay [4] was “binds” each time.

(Values after article PMC13193388, “Dimerization‐dependent NOTCH receptor transactivation unveils a class of highly selective NOTCH signalling inhibitors” (The Febs Journal, 2025).)
